Assay results taken from publication PMC6697728.
No constants are given. Whether binding was seen depends on the method and setting. In cells and extracts the contact can be indirect. A yes stands for co-enrichment or nearness to the bait. Other partners may have been found.

Chains of the proteins cited; added tags and fusions are not shown. Residues count along the entry.
UniProt P29323, residues 19-1055: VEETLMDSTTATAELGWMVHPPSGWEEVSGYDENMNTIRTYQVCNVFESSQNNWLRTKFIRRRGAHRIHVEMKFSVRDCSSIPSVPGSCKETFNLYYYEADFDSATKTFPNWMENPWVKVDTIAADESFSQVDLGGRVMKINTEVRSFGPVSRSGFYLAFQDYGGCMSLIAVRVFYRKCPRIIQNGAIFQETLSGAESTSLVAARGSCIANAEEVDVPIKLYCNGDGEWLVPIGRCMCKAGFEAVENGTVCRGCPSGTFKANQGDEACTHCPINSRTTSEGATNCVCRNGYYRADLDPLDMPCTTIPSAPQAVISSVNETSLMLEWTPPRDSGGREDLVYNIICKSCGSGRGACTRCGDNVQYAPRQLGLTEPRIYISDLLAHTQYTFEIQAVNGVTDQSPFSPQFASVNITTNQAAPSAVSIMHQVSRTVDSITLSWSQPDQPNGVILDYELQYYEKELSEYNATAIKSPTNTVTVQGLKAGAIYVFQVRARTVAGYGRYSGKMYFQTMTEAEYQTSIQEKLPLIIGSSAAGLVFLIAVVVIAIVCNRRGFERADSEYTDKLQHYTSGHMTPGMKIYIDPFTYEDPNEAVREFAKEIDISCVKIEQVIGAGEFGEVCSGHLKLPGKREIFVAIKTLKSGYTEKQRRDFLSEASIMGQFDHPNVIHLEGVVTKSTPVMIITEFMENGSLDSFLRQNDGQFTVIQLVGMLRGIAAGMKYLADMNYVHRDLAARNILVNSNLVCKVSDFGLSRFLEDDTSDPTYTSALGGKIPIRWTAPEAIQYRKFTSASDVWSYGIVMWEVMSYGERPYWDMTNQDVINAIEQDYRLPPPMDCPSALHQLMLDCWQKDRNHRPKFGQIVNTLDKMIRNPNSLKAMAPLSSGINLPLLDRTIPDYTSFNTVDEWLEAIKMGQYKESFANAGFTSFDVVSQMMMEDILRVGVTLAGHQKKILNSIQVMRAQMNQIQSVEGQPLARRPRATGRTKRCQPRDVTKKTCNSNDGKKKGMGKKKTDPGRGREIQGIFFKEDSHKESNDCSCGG
UniProt O43639: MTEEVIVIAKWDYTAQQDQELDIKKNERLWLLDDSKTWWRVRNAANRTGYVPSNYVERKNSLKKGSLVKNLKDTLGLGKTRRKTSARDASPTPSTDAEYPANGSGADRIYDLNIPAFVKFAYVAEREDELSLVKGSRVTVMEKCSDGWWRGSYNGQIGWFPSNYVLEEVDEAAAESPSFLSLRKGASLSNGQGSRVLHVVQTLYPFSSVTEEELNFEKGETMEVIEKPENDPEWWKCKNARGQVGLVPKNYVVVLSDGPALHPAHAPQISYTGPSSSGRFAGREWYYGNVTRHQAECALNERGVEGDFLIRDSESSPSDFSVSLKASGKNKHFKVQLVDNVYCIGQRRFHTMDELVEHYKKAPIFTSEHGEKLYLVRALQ
UniProt P27986: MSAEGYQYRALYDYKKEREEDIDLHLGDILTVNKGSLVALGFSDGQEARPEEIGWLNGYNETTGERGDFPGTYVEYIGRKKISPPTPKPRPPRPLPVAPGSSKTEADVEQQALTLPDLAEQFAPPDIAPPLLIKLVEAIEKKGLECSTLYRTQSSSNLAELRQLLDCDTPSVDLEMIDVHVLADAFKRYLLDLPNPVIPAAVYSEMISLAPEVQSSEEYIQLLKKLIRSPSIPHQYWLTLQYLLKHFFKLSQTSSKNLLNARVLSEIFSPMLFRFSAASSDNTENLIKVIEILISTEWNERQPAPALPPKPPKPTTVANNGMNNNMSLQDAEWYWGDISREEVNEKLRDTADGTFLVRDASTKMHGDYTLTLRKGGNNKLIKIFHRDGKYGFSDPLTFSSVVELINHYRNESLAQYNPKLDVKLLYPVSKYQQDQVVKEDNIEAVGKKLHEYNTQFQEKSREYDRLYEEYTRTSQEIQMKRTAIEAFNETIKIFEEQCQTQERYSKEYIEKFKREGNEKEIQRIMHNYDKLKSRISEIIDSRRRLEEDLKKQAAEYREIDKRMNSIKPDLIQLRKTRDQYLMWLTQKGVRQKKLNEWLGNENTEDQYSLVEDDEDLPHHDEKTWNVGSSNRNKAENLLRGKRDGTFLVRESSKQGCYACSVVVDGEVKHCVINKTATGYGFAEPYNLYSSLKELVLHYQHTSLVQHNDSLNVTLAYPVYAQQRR
UniProt P46108: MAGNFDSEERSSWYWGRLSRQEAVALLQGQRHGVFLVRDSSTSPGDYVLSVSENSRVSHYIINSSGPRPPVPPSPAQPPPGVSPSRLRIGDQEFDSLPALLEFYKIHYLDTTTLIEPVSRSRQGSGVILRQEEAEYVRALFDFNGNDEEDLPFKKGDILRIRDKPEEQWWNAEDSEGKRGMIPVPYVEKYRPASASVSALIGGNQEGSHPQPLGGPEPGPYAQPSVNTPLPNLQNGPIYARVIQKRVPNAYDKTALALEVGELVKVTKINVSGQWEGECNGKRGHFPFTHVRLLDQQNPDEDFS
UniProt Q96T51: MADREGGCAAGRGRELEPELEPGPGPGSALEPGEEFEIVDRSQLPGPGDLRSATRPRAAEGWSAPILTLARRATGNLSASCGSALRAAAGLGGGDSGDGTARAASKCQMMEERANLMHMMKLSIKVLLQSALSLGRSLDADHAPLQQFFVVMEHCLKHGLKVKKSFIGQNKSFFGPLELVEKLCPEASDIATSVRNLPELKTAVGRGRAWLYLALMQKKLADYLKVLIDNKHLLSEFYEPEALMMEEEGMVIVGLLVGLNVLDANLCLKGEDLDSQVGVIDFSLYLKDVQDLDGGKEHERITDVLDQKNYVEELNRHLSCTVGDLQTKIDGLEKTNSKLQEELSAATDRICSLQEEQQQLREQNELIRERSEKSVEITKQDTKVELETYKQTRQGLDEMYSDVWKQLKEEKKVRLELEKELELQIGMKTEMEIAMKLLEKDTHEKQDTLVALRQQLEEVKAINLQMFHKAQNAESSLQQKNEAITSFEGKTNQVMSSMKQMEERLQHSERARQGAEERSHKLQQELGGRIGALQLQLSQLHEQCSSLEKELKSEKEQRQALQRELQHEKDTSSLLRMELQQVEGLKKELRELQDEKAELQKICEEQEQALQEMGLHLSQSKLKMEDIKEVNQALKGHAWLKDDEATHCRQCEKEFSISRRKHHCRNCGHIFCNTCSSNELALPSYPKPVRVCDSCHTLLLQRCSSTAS
UniProt Q9H3S7: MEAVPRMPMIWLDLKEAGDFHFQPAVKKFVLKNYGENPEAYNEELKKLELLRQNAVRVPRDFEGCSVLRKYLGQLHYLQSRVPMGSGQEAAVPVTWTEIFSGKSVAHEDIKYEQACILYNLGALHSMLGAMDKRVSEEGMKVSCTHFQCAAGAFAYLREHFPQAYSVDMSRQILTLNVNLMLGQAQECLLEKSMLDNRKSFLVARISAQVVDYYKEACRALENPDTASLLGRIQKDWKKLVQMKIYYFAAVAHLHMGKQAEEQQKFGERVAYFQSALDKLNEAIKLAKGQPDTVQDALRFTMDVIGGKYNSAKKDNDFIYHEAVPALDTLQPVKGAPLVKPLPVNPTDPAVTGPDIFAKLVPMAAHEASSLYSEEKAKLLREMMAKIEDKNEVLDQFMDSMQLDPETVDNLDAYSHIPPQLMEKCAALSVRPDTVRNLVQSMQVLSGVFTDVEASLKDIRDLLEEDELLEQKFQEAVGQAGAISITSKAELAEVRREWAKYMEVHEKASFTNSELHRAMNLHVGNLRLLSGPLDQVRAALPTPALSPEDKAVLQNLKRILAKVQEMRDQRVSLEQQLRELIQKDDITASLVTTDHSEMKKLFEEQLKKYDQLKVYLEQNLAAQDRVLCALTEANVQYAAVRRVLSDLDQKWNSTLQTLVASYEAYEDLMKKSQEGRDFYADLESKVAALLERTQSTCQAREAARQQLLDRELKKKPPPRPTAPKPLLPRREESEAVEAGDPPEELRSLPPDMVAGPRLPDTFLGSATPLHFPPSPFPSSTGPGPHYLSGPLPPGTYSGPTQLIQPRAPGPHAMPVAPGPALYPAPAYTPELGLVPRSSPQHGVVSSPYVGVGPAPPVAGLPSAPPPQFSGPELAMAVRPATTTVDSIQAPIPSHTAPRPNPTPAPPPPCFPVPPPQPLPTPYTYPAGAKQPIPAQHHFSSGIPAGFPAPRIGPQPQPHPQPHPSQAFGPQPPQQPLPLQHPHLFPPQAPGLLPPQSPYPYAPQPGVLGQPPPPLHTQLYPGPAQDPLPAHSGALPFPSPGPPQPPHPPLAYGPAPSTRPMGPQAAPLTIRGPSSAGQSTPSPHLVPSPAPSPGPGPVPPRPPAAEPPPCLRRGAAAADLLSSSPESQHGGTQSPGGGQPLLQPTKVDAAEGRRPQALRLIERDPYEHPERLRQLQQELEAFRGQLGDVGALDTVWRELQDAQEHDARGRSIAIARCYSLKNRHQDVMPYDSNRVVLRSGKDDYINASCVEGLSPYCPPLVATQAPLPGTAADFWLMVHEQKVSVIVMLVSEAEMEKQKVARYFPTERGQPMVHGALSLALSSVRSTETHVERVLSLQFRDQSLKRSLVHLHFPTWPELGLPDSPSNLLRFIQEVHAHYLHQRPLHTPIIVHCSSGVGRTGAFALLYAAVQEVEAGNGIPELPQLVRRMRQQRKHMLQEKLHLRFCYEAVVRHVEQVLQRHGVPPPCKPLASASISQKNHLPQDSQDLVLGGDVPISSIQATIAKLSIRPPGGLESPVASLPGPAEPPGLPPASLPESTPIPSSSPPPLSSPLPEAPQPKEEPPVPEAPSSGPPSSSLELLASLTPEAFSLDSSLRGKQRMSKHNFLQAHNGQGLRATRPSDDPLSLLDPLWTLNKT

molecular target: EphB2-BirA*-FLAG (UniProt P29323); assay: proximity labelling; BioID: EphB2-BirA*-FLAG induced with tetracycline in Flp-In T-REx HEK293; 6 h with 50 uM biotin and pre-clustered eB2-Fc or Fc (1.5 ug/mL) or medium; RIPA lysis, streptavidin pull-down, mass spectrometry; SAINT against BirA*-FLAG-EGFP and empty vector, BFDR <= 0.01

binding, binds:
Nck adaptor protein NCK2 (from UniProt O43639 1-380)
Pik3r1 (from UniProt P27986 1-724)
CRK (from UniProt P46108 1-304)
RUN and FYVE domain-containing protein 1 (RUFY1) (from UniProt Q96T51 1-708)
HD-PTP (endogenous, HEK293) (from UniProt Q9H3S7 1-1636)
Notch2 (from UniProt Q04721 26-2471)
